Results taken from article PMC11982464, “Structural insight into the catalytic mechanism of the bifunctional enzyme L-fucokinase/GDP-fucose pyrophosphorylase” (The Journal of Biological Chemistry, 2025).
These are yes or no findings as the source states them, for the method shown. Some results given as binding are weak or reduced against the parent protein; the word gives no strength.

Target: FKP-CTD-like molecule formed by autodegradation of FKP-FL and crystallised (FKP-CTD/fucose-1-P crystal) (Bacteroides fragilis 9343) (UniProt Q58T34)
Assay: crystal structure; FKP-CTD from FKP autodegradation, F222 crystal, one molecule in the asymmetric unit, soaked with fucose-1-P, 2.46 Å; 50 mM Hepes pH 7.0, 0.8% trypton, 10% PEG3350; both purified

binding: binds
B1: FKP-CTD-like molecule formed by autodegradation of FKP-FL and crystallised (FKP-CTD/fucose-1-P crystal) (domain or fragment, UniProt Q58T34 531-949)
chain: RIHNRMLRARILKLDGKDYRPEEQAAFDLLRDGLLDGISNRKSTPKLDVYSDQIVWGRSPVRIDMAGGWTDTPPYSLYSGGNVVNLAIELNGQPPLQVYVKPCKDFHIVLRSIDMGAMEIVSTFDELQDYKKIGSPFSIPKAALSLAGFAPAFSAVSYASLEEQLKDFGAGIEVTLLAAIPAGSGLGTSSILASTVLGAINDFCGLAWDKNEICQRTLVLEQLLTTGGGWQDQYGGVLQGVKLLQTEAGFAQSPLVRWLPDHLFTHPEYKDCHLLYYTGITRTAKGILAEIVSSMFLNSSLHLNLLSEMKAHALDMNEAIQRGSFVEFGRLVGKTWEQNKALDSGTNPPAVEAIIDLIKDYTLGYKLPGAGGGGYLYMVAKDPQAAVRIRKILTENAPNPRARFVEMTLSDKGFQVSRS
